No constants are given. Whether binding was seen depends on the method and setting. For part of these data: In cells and extracts the contact can be indirect. Some binding calls cover weakened binding; strength is not graded here. For part of these data: Tags and fused reporters may be left off the sequences shown.
T1: OsPYL/RCAR3 (yeast two-hybrid fusion) (rice (Oryza sativa cv. Dongjin)) (UniProt Q6EN42)
T1 sequence: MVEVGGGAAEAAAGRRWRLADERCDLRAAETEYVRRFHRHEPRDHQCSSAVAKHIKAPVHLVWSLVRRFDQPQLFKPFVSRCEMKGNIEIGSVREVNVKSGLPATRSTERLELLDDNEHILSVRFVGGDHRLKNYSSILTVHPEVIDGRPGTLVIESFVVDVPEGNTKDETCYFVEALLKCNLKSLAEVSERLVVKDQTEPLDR

T2: OsPYL/RCAR3-VN (BiFC fusion) (rice (Oryza sativa cv. Dongjin)) (UniProt Q6EN42)
T2 sequence: T1 sequence

T3: OsPYL/RCAR3 (co-immunoprecipitation construct) (rice (Oryza sativa cv. Dongjin)) (UniProt Q6EN42)
T3 sequence: T1 sequence

B1: OsPP2C06 (yeast two-hybrid fusion) (enzyme, UniProt Q0JLP9 1-467)
chain: MEDVAVAAALAPAPATAPVFSPAAAGLTLIAAAAADPIAAVVAGAMDGVVTVPPVRTASAVEDDAVAPGRGEEGGEASAVGSPCSVTSDCSSVASADFEGVGLGFFGAAADGGAAMVFEDSAASAATVEAEARVAAGARSVFAVECVPLWGHKSICGRRPEMEDAVVAVSRFFDIPLWMLTGNSVVDGLDPMSFRLPAHFFGVYDGHGGAQVANYCRERLHAALVEELSRIEGSVSGANLGSVEFKKKWEQAFVDCFSRVDEEVGGNASRGEAVAPETVGSTAVVAVICSSHIIVANCGDSRAVLCRGKQPVPLSVDHKPNREDEYARIEAEGGKVIQWNGYRVFGVLAMSRSIGDRYLKPWIIPVPEITIVPRAKDDECLVLASDGLWDVMSNEEVCDVARKRILLWHKKNGTNPASAPRSGDSSDPAAEAAAECLSKLALQKGSKDNISVIVVDLKAHRKFKSKS
B2: OsPP2C09 (yeast two-hybrid fusion) (enzyme, UniProt Q5N9N2 1-414)
chain: MAEICCEEAMSPPATATAAVAAAVSASAAAAVSSAIDRRRRRMEMRRIRIASDLELQAGEDGRPGKRQRLARTASGAPRPDEDSASERPSCGRTEEFPRYGVTAVCGRRREMEDAVSIRPDFLPASGKFHFYGVFDGHGCSHVATTCQDRMHEIVAEEHNKGASGEVAPWRDVMEKSFARMDGEVGNRASTRSDDEPACPCEQQTPSRRDHAGSTAVVAVVSPTQVVVANAGDSRAVISRAGVPVALSVDHKPDRPDELERIEAAGGRVIYWDGARVLGVLAMSRAIGDGYLKPYVTSEPEVTVTERTDDDECLILASDGLWDVVTNEMACEVVRACFHNNGPPAPAARPSGVPSSAEAAETENGGAASVKGISKAESSDKACSDAAMLLTKLALARRSADNVSVVVVDLRRGL
B3: OsPP2C30 (yeast two-hybrid fusion) (enzyme, UniProt Q84JI0 1-404)
chain: MAEICCEVVAGSSSEGKGPECDTGSRAARRRRMEIRRLRVVAERGAEEETSGKRRRLDGGGGEASTDEEDREVERARYGFTSVCGRRRDMEDSVSACPGFLPGHHFFGVFDGHGCSHVATSCGQRMHEIVVDEAGAAAGSAGLDEEARWRGVMERSFARMDAEAVASSRGSVAPAPTCRCEMQLPKCDHVGSTAVVAVLGPRHVVVANCGDSRAVLCRGGAAIPLSCDHKPDRPDELERIHAAGGRVIFWDGARVFGMLAMSRAIGDSYLKPYVICDPEVRVMERKDGEDEFLILASDGLWDVVSNEVACNVVRACLRSSGRRERNRSSPTSNLSPRQSSSSGDEAPNDGAPSAAAGSESDEESAAEEDKACAEAAVLLTKLALARQTSDNVSVVVVNLRRRKL
B4: OsPP2C06-VN (BiFC fusion) (enzyme, UniProt Q0JLP9 1-467)
chain: B1 chain
B5: OsPP2C09-VN (BiFC fusion) (enzyme, UniProt Q5N9N2 1-414)
chain: B2 chain
B6: OsPP2C30-VN (BiFC fusion) (enzyme, UniProt Q84JI0 1-404)
chain: B3 chain
B7: OsPP2C06 (co-immunoprecipitation construct) (enzyme, UniProt Q0JLP9 1-467)
chain: B1 chain
B8: OsPP2C09 (co-immunoprecipitation construct) (enzyme, UniProt Q5N9N2 1-414)
chain: B2 chain
B9: OsPP2C30 (co-immunoprecipitation construct) (enzyme, UniProt Q84JI0 1-404)
chain: B3 chain

The binders below were run against T1, OsPYL/RCAR3 (yeast two-hybrid fusion) (rice (Oryza sativa cv. Dongjin)) (assay: two-hybrid; yeast two-hybrid; interaction seen even in the absence of ABA in the growth medium (Figure S3B)).

Question: Which binding does the source give for B1 here?
Answer: binds

Question: How did the binding turn out when B2 was run?
Answer: binds

Question: B3 was tested. Which binding did it give?
Answer: binds

What follows are binders tested against T2, OsPYL/RCAR3-VN (BiFC fusion) (rice (Oryza sativa cv. Dongjin)) (assay: split reporter; BiFC with split Venus (VN and VC fusions) in rice protoplasts, PEG-mediated transfection; ER-mCherry as internal control; confocal microscopy).

Question: Which binding does the source give for B4 here?
Answer: binds

Question: B5 was tested. Which binding did it give?
Answer: binds

Question: How did the binding turn out when B6 was run?
Answer: binds

What follows are binders tested against T3, OsPYL/RCAR3 (co-immunoprecipitation construct) (rice (Oryza sativa cv. Dongjin)) (assay: co-IP; rice protoplasts transfected with GFP and 3xHA fusions, 28 °C for 20 h; extracts in 150 mM NaCl, 50 mM Tris-HCl pH 7.5, 0.5% NP40, 0.5% Triton X-100; GFP-trap beads, 4 °C for 2 h, 5 washes; immunoblot with anti-GFP and anti-HA).

Question: With B7 as the binder, how does the binding read?
Answer: binds

Question: Which binding does the source give for B8 here?
Answer: binds

Question: For B9, which binding is on record?
Answer: binds

Source: publication PMC7795834
